The values below come from paper PMC4287573.

By UniProt entry, the sequences of proteins in these tests, tags left out. Residues count along the entry.
HCV non-structural protein NS3 (Q99IB8, residues 1031-1661): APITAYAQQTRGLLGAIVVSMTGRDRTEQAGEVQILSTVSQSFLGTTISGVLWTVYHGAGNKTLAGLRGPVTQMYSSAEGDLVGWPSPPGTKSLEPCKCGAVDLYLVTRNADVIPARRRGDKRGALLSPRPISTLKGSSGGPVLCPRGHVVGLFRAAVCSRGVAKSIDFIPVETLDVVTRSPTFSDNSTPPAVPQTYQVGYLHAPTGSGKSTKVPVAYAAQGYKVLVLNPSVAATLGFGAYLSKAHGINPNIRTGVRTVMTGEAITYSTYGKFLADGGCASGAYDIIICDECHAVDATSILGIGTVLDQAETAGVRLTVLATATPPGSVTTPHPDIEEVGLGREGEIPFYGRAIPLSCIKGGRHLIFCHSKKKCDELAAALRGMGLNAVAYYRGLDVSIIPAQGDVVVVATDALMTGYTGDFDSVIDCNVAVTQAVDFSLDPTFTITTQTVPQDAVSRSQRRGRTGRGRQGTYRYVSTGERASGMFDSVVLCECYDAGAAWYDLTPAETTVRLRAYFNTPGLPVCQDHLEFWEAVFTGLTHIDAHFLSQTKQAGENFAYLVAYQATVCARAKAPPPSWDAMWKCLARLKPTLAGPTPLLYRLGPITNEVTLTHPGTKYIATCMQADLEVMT
HCV non-structural protein NS5A (Q99IB8, residues 1977-2442): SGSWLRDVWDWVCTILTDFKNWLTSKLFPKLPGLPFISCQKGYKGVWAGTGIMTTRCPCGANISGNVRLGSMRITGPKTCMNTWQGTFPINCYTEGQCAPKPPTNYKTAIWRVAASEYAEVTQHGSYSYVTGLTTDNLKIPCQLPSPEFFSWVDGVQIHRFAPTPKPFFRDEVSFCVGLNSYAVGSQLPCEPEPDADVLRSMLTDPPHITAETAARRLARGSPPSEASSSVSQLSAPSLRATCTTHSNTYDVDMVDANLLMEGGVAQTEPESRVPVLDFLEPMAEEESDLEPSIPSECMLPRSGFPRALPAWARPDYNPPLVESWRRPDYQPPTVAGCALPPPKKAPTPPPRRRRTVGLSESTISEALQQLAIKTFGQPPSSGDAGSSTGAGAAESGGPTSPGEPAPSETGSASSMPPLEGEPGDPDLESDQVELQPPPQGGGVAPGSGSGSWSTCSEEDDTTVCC

These are yes or no findings as the source states them, for the method shown. In cells and extracts the contact can be indirect. Some results given as binding are weak or reduced against the parent protein; the word gives no strength.

Experiment [1] concerns the target HA-tagged HNRNPK deletion mutant ΔNLS (human) (UniProt P61978). The experiment can be described thus: co-IP; anti-HA agarose beads on lysates of Huh7.5 cells stably expressing HA-tagged HNRNPK or its deletion mutants, 48 h after electroporation with a subgenomic JFH1 replicon or genomic HCV RNA; lysis buffer 20 mM Tris-HCl pH 7.5, 0.5% Nonidet P-40, 1 mM sodium deoxycholate, 100 mM NaCl; 3 h at 4°C; elution with HA peptide; immunoblot; cells with non-tagged HNRNPK as control. (In general: A replicon is a self-replicating genome or part of one, used to study replication in cells.)

In experiment [2] the target is HA-tagged HNRNPK (heterogeneous nuclear ribonucleoprotein K), wild type (human) (UniProt P61978). Described as above.

“HCV non-structural protein NS3 (from UniProt Q99IB8 1031-1661)”: the binding result in experiment [1] is recorded as “binds”.
With “HCV non-structural protein NS5A (from UniProt Q99IB8 1977-2442)”, in experiment [2], the binding entry is “no binding”.
